Laboratory results as given in patent US20240216250A1, “COSMETIC PEPTIDES FOR IMPROVING SKIN REJUVENATION” (Lean Life Sciences, Inc., priority 2021, published 2024).
At least one peptide structure holds a part that was inferred or is arguable (an end, a ring closure or a residue). Ends that are not written are not given here.

Columns and labels:
skin cells [1] = assay: Collagen and fibronectin levels in skin cells upon peptide treatment; type: cell-based; conditions: Example 1-17, at a particular concentration (FIG. 11)
Protocol: (§1) An additional group of skin cells are treated with one of […] (SEQ ID NO: 3) and […] (SEQ ID NO: 4) in the same manner as Example 1-1.
The fructose, glucose, and sucrose concentrations in the groups where the above peptides are treated are not affected (data not shown), while the extra cellular matrix molecules, collagen and fibronectin, are determined.

skin cells [2] = assay: Fructose, glucose and sucrose concentration in skin cells, same manner as Example 1-1; type: cell-based; conditions: Example 1-17, data not shown
Protocol: Fructose concentration in 3T3-L1 cell lysates was measured using the Fructose Assay Kit (Abcam, Cambridge, UK). Six-well plates were seeded with 5×10^5 3T3-L1 cells/well one day before treating with 150 μM peptide. After 48 hours of treatment, the cells were harvested and fructose concentrations were assayed according to the manufacturer's instruction.
An additional group of skin cells are treated with one of KGGRAKD, KGG, GGR, GRA, RAK, AKD, DKA, KAR, ARG, RGG, GGK, and DKARGGK in the same manner as Example 1-1.
An additional group of skin cells were treated with […] (SEQ ID NO: 5) in the same manner as Example 1-1.
as §1

3T3-L1 fibroblast = assay: Collagen and fibronectin production in 3T3-L1 fibroblast by ELISA, with cell number; type: cell-based, mouse
Description: Effects of […] (SEQ ID NO: 5) on collagen and fibronectin production are validated in mouse fibroblast. A mouse fibroblast cell line is purchased from American Type Culture Collection (ATCC) to be used in all in vitro studies (3T3-L1 CL-173). The cells are first thawed into two T75 flasks per 1 million cell vial in basal medium I (BMI), which is composed of DMEM (4.5 g/l glucose) supplemented with 10% FBS and 1% Penicillin Streptomycin (P/S). The media is changed the following day, and on day 3, the cells are seeded in 96-well plates (200 μl/well). The peptide was administered to 3T3-L1 fibroblast in five varying concentrations. Collagen and fibronectin produced from the cell was assessed in the cell culture media 3 days after the peptide treatment by ELISA.

[3] = 0.2 uM peptide, 3 days after treatment, vs non-treated control
[4] = five varying concentrations, above 0.2 uM

Question: ACTGSTQHQGGGSESPLKRQG was tested. Which “Collagen in skin cells vs control group” value (skin cells [1]) did it give?
Answer: significantly higher than the control group

Question: What about the “Fibronectin in skin cells vs control group” value (skin cells [1]) of the same sequence?
Answer: significantly higher than the control group

Question: What about the “Fructose concentration in skin cells” value (skin cells [2]) of the same sequence?
Answer: not affected

Question: What about the “Glucose concentration in skin cells” value (skin cells [2]) of the same sequence?
Answer: not affected

Question: And the “Sucrose concentration in skin cells” value (skin cells [2])?
Answer: not affected

Question: And the “Collagen level in cell culture media” value (3T3-L1 fibroblast; [3])?
Answer: increased compared to the non-treated control

Question: What about the “Fibronectin level in cell culture media” value (3T3-L1 fibroblast; [3]) of the same sequence?
Answer: increased compared to the non-treated control

Question: And the “Collagen level with increasing peptide concentration” value (3T3-L1 fibroblast; [4])?
Answer: gradually decrease as the peptide concentration increases

Question: What about the “Fibronectin level with increasing peptide concentration” value (3T3-L1 fibroblast; [4]) of the same sequence?
Answer: gradually decrease as the peptide concentration increases
